The list shows a part of the results.

Sequences of proteins named here, by UniProt entry; tags and fusion partners are left off.
UniProt Q0JBA9, entry or part of it: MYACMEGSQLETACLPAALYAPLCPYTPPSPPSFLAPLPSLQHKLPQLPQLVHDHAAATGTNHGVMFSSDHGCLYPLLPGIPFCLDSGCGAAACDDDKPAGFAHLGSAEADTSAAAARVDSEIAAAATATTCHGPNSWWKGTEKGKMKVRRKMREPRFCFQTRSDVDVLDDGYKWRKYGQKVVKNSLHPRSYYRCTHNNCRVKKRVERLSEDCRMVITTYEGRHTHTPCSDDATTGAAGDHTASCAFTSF

The test has as its target OsWRKY34 (Oryza sativa, UniProt Q0JBA9 1-250). Put plainly: protein-binding microarray (RPBM); PBS, 2% BSA, 51.3 ng/ul salmon testes DNA, 50 uM zinc acetate, 200 nM TF, 25 C, 1 h; high values mean tight binding. The settings on record: protein: recombinant; tags: N-terminal polyhistidine and DsRed monomer fusion (pET32a); label: CyDye5-dUTP incorporated in the synthesized complementary strand; 3' TTTTT single-stranded linker to array surface; dsDNA, one strand shown. The essentials:
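Per-feature fluorescence intensity (arbitrary units), read on an Axon 4000B scanner, is the binding signal. Transcription factors carrying an N-terminal polyhistidine tag and DsRed fusion were expressed in E. coli BL21-CodonPlus and purified on Ni–NTA. A custom Agilent array, made double-stranded by primer extension with Cy5-dUTP and blocked with 2% BSA, was incubated with 200 nM protein in PBS, 2% BSA, salmon testes DNA and 50 µM zinc acetate at 25 °C for 1 h and then washed.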
For “GGGGAAGGGGCAGGGGAGGAAGGAGGCGCTGGGGTGGCTGCGGAGTCACCTAGTGCAG”, the binding signal was 10400 fluorescence intensity (a.u.).

Regarding “AGATTTTGTTTATGTTATTTTTATGGGGATTATTTTATGTCGGAGTCACCTAGTGCAG”, the binding signal is 9870 fluorescence intensity (a.u.).

Regarding “CCTATGGTTTACTGGGTTTTTTTTTCCGGAATTGCATTATCGGAGTCACCTAGTGCAG”, the binding signal is 8280 fluorescence intensity (a.u.).

As to “GGTGGGTTGCTGCCTTGCAGAATGTATCGGAAAATCCTCTCGGAGTCACCTAGTGCAG”, the binding signal is 8660 fluorescence intensity (a.u.).

As to “TTTTCTTTTATTTTCCACCGGTACTGTTCATTGCGCACCACGGAGTCACCTAGTGCAG”, the binding signal is 11800 fluorescence intensity (a.u.).

Turning to “AAGGGCTTTATTCACTTTCTTGTTTTTAATCATATCAGATCGGAGTCACCTAGTGCAG”, the binding signal is 8240 fluorescence intensity (a.u.).

Regarding “GGCTGGGCTCTGGGCTGTCGTCCGCCTCAGCGTCTTAAATCGGAGTCACCTAGTGCAG”, the binding signal was 8940 fluorescence intensity (a.u.).

As to “CCATATATTGTACAGATCTTTTCATTGCTTTATCCATACTCGGAGTCACCTAGTGCAG”, the binding signal is 10000 fluorescence intensity (a.u.).

In the case of “TTGCACAACTCCATTTGCTCCAATCCTTTTCTTCTCTTCTCGGAGTCACCTAGTGCAG”, the binding signal was 9980 fluorescence intensity (a.u.).

With “ATTCCCTCGTCGCCAGCGGTTTCGCGTTGCCGCGTTCGTCCGGAGTCACCTAGTGCAG”, the binding signal is 9100 fluorescence intensity (a.u.).

Turning to “GCCCCACTAAAGAACATCTCCTGATTTTACATGTCATTAACGGAGTCACCTAGTGCAG”, the binding signal is 8660 fluorescence intensity (a.u.).

“TTGTGTAGTAGTGAAAATTTCTATCGAATGTGACGCATATCGGAGTCACCTAGTGCAG”: the binding signal was 8080 fluorescence intensity (a.u.).

“CAGGATCTTCTCCCTTGTGTTCTTGCTGCTTTTCTGCTCCCGGAGTCACCTAGTGCAG”: the binding signal was 8480 fluorescence intensity (a.u.).

On to “CTGGAATTCTTCTGCCGTTGTCTGCGCCTCTGTCTGCGATCGGAGTCACCTAGTGCAG”, for which the binding signal was 8260 fluorescence intensity (a.u.).

As for “CACCACAATCTCGTCCTCTCACTCACCCACGCACACATGCCGGAGTCACCTAGTGCAG”, the binding signal is 8860 fluorescence intensity (a.u.).

Regarding “GATTTACTTTTCTAGAATGTGTCACATCCACCTGAAATTTCGGAGTCACCTAGTGCAG”, the binding signal is 8720 fluorescence intensity (a.u.).

For “GATTTTGGTTTGTGTTATGTCGGCAGGAGGCGGCGGCGGCCGGAGTCACCTAGTGCAG”, the binding signal was 8650 fluorescence intensity (a.u.).

As for “TCACCAGTTGTTCATTGTTGTTGTACACACCATGACCGCGCGGAGTCACCTAGTGCAG”, the binding signal was 8230 fluorescence intensity (a.u.).

Consider “AAGCGCCCACATGTGTTGTGGAGGTCTCCCACTTTTTTTTCGGAGTCACCTAGTGCAG”, for which the binding signal is 10900 fluorescence intensity (a.u.).

“CTAACCCGCGCCCCAACCCTAGCCGCCTCCGCCCCGCCTCCGGAGTCACCTAGTGCAG”: the binding signal is 8920 fluorescence intensity (a.u.).

With “TCCACGAGCTTGTTTTCATGTTTAGAGTAACTTTTCCAAACGGAGTCACCTAGTGCAG”, the binding signal was 9180 fluorescence intensity (a.u.).

For “AGGTTGAGGTTCTCCCTCCACGTCCTCTTGGGTGGCTTCTCGGAGTCACCTAGTGCAG”, the binding signal is 8430 fluorescence intensity (a.u.).

With “GTCGATTGTTTTCTACTCCACTTTTCTCTCTCTCGGTCTCCGGAGTCACCTAGTGCAG”, the binding signal is 11700 fluorescence intensity (a.u.).

Turning to “TCATCTGCTCCAAATTAAGCATTGCATCATCTACTCTGCCCGGAGTCACCTAGTGCAG”, the binding signal was 8390 fluorescence intensity (a.u.).

Take “CATCATTGGTGATCTCCCTTCATCCTCCTTTTAGCTTTGCCGGAGTCACCTAGTGCAG”: the binding signal is 9360 fluorescence intensity (a.u.).

As for “GATCTCACTGTTTTCTTCCATCCACCATCTTCTTTTCCGGCGGAGTCACCTAGTGCAG”, the binding signal is 11500 fluorescence intensity (a.u.).

As to “GCGATTCTTGCCACTCGCCAATCGCCGCCACACCCAATCCCGGAGTCACCTAGTGCAG”, the binding signal was 8130 fluorescence intensity (a.u.).

For “TATATGAAATTTTCACACTTGTATTGTCTTAACTTTCCAGCGGAGTCACCTAGTGCAG”, the binding signal is 8520 fluorescence intensity (a.u.).

With “AAATTTAACTTTTACATCGCGTCCCACCGTCGCCGCGCTCCGGAGTCACCTAGTGCAG”, the binding signal is 8480 fluorescence intensity (a.u.).

With “GTTACGTTATATTTCACTGCTCAATTTAATGGTCTTGGTTCGGAGTCACCTAGTGCAG”, the binding signal is 11000 fluorescence intensity (a.u.).

For the sequence “TTGTCTTCAAGTTTTTTCCATTGTGTCAGGATGTGATCACCGGAGTCACCTAGTGCAG”, the binding signal is 9550 fluorescence intensity (a.u.).

With “ACAAACTGCAACTCGACAGGATTATAGCACAAATTATTTGCGGAGTCACCTAGTGCAG”, the binding signal was 8170 fluorescence intensity (a.u.).

In the case of “AGGGGTTAGCTATTATCGGACAACTTAGCATATTGAAATTCGGAGTCACCTAGTGCAG”, the binding signal is 12600 fluorescence intensity (a.u.).

Turning to “TCTCTCTTTCTTTCTATTTTTCTTTTCAGTCAGGTTAGTACGGAGTCACCTAGTGCAG”, the binding signal is 11000 fluorescence intensity (a.u.).

For “ACGATGGATCACACAAAGCTCTCTCAGCTGCTTCTCTTCACGGAGTCACCTAGTGCAG”, the binding signal is 9640 fluorescence intensity (a.u.).

For the sequence “TATCCCACCTACCATATACACACTGCGTCTTGGAGTCCGTCGGAGTCACCTAGTGCAG”, the binding signal was 8260 fluorescence intensity (a.u.).

“GGGAGGGAGGGAGAGGGGCAAGTGTGATTGATGCACAAACCGGAGTCACCTAGTGCAG”: the binding signal was 8300 fluorescence intensity (a.u.).

For the sequence “GATTTTGGTCAACCTGCATCTGTTACTACAAGTAGTAAGTCGGAGTCACCTAGTGCAG”, the binding signal is 9410 fluorescence intensity (a.u.).

With “TTGATTGGCTTGGCTGGCTTTGGCTTCCCTGTTCGATATTCGGAGTCACCTAGTGCAG”, the binding signal was 10500 fluorescence intensity (a.u.).

As to “GAGACCATCTCGGTTTCTTGCATCCTTTTCCCGTGTCTCGCGGAGTCACCTAGTGCAG”, the binding signal is 8060 fluorescence intensity (a.u.).

Regarding “TGACGTTGACCATTTATCTAGTTTTTTTTAAAAAATAATACGGAGTCACCTAGTGCAG”, the binding signal was 11000 fluorescence intensity (a.u.).

As to “ATCTTAACCGCAACAGCTTTGCATCTTTTTAGTACCTATTCGGAGTCACCTAGTGCAG”, the binding signal was 8170 fluorescence intensity (a.u.).

Values taken from PMC7819943, “Rice protein-binding microarrays: a tool to detect cis-acting elements near promoter regions in rice”.
